No constants are given. Whether binding was seen depends on the method and setting. Binding seen in cells or lysates may run through a third protein. For some of these results: A result given as binding can be weak or reduced; the word gives no strength. Sequences can lack the tags named with a protein.

Assay [1] has as its target F-FLAG (C-terminally FLAG-tagged mumps virus fusion protein) (mumps virus). Put plainly: co-IP; 293T cells co-expressing FLAG-tagged F or HN and an HA-tagged host protein; immunoprecipitated with anti-FLAG or anti-HA antibody; lysis in 20 mM Tris-HCl pH 7.5, 135 mM NaCl, 1% Triton X-100; protein G beads, immunoblotting (Fig 4A, S3 Fig).
For assay [2], the target named is FLAG-HN (N-terminally FLAG-tagged mumps virus hemagglutinin-neuraminidase) (mumps virus). Briefly: co-IP.

B1: HA-USE1 (Unconventional SNARE in ER 1) (protein, UniProt Q9NZ43 1-259)
chain: MAASRLELNLVRLLSRCEAMAAEKRDPDEWRLEKYVGALEDMLQALKVHASKPASEVINEYSWKVDFLKGMLQAEKLTSSSEKALANQFLAPGRVPTTARERVPATKTVHLQSRARYTSEMRSELLGTDSAEPEMDVRKRTGVAGSQPVSEKQLAAELDLVLQRHQNLQEKLAEEMLGLARSLKTNTLAAQSVIKKDNQTLSHSLKMADQNLEKLKTESERLEQHTQKSVNWLLWAMLIIVCFIFISMILFIRIMPKLK
Consider B1, for which the binding result was “binds” in assay [1] and “no binding” in assay [2].

B2: HA-BET1 (protein, UniProt O15155 1-118)
chain: MRRAGLGEGVPPGNYGNYGYANSGYSACEEENERLTESLRSKVTAIKSLSIEIGHEVKTQNKLLAEMDSQFDSTTGFLGKTMGKLKILSRGSQTKLLCYMMLFSLFVFFIIYWIIKLR
B2: the binding entry is given as “binds” in assay [1] and “no binding” in assay [2].

Source of the values: PMC9731409.
